No constants are given. Whether binding was seen depends on the method and setting. Some results given as binding are weak or reduced against the parent protein; the word gives no strength.

Amino acid sequences for entries named in this document (tags omitted). A change or cut given only in a name is not applied to a line headed by its entry.
UniProt P01215: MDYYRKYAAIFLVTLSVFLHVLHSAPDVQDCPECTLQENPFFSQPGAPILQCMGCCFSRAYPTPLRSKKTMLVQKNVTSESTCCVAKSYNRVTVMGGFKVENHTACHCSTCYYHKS

Test [1] has as its target T1, human chorionic gonadotropin (human, UniProt P01215 25-116; P0DN86 21-165, biotinylated using an NHS-SS-biotin reagent (sites not given)).
T1 construct: The target was biotinylated and immobilized on Neutravidin- or Streptavidin-coated strip plates; also called hCG
Description: phage display selection and ELISA screen, hCG immobilized.

In test [2] the target is T1, human chorionic gonadotropin. In words: ELISA screen at phage and protein level, biotinylated hCG immobilized.

B1: engineered rubredoxin protein D7 (designed binder)
chain: MAKWVCKICGYIYDEDAGEDPGHRSRYISPGTKFEELTTGWTCPICRCTNSTTSTNCFEKLED
notes: Engineered Pyrococcus furiosus rubredoxin; No tags are stated for the assayed construct
For the molecule B1, the binding entry in test [1] is reported as “binds”.

B2: engineered rubredoxin protein G3 (designed binder)
chain: MAKWVCKICGYIYDEDAGFVEYYGHPNISPGTKFEELSRYVDGWTCPICSYGMPIFEKLED
notes: Engineered Pyrococcus furiosus rubredoxin
B2: the binding entry in test [1] is recorded as “binds”.

B3: engineered rubredoxin protein F3 (designed binder)
chain: MAKWVCKICGYIYDEDAGFVEYYDDGVISPGTKFEELHTAWTCPICSCTYNPFEKLED
notes: as for B1
Take B3: in test [1], the binding entry was “binds”.

B4: engineered chaperonin protein SP4-5 (designed binder)
chain: DDDRIPASGIVIARPGESAFMPDVVKNAKIALIDSALEIKKTEIEAKVQISDPSKIQDFLNQETNTFKQMVEKIKKSGANVVLCNGDQADVAYDYLAKEGIYAVHFVDESDMEKLAKATGAKIVTDLDDLTPSVLGEAETVEERKYTEGVPTYVMGCKGSVSHHHHHHSEQKLISEEDLLRLE
notes: also called engineered protein clone SP4-5; not shown: FLAG-tag from the expression vector upstream of the insertion site
On to B4, for which the binding entry in test [2] is “binds”.

The record behind these values is US20040009530A1 (ZYOMYX, published 2004).
